These are yes or no findings as the source states them, for the method shown. Binding seen in cells or lysates may run through a third protein. Some results given as binding are weak or reduced against the parent protein; the word gives no strength. For some assays here: Sequences can lack the tags named with a protein.

Sequences of proteins named here, by UniProt entry; tags and fusion partners are left off.
UniProt P52945: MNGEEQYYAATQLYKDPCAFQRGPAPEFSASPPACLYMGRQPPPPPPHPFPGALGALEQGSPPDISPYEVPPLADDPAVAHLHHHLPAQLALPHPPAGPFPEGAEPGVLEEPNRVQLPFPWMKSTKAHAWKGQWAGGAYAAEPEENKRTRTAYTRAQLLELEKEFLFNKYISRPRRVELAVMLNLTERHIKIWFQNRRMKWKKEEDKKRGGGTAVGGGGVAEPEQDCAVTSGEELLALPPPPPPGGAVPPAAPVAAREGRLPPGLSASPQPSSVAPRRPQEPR
UniProt Q969H0: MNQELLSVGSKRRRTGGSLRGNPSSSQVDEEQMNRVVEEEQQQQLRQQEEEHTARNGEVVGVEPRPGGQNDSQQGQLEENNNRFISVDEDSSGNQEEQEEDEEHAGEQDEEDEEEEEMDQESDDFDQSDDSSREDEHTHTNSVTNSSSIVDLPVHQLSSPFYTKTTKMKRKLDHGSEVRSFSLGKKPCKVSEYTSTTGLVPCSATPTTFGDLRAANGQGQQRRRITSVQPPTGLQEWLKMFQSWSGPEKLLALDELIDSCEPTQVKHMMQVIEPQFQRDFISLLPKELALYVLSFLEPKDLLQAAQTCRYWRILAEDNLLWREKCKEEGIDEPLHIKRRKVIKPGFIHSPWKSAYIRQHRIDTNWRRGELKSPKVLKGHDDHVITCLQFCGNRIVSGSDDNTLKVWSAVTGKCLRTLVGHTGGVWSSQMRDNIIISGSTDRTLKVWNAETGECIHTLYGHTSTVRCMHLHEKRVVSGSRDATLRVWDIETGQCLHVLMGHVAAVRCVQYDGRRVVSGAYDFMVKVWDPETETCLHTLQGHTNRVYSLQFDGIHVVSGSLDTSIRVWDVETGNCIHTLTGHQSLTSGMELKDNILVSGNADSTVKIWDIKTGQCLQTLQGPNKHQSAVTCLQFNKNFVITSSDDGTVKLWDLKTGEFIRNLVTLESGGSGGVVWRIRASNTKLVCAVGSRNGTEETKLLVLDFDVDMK

Binding data for two molecules are collected here from paper PMC8155495.

Assay [1] addresses T1, Flag-NGN3 (Neurogenin 3) (UniProt Q9Y4Z2).
T1 sequence: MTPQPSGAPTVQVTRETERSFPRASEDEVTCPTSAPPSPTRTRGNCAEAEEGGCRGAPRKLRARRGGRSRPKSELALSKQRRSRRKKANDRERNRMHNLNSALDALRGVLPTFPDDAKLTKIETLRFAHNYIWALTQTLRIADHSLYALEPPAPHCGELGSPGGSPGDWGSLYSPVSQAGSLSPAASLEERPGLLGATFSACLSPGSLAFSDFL
Briefly: co-IP; HEK293T cells cotransfected with Flag-NGN3, Myc-FBW7 and HA-Ub, treated with 0 or 10 uM MG132; lysate immunoprecipitated with anti-Flag antibodies, western blotting. (In general: A western blot detects proteins with antibodies after separation by electrophoresis.)

In assay [2] the target is pancreatic-duodenal homeobox factor 1 (PDX1), endogenous (human (endogenous in human beta cells and i-Beta cells)) (UniProt P52945). Put plainly: co-IP; immunoprecipitation with an anti-PDX1 antibody from i-Beta cells and human beta cells, western blotting for NGN3.

Turning to Myc-FBW7 (from UniProt Q969H0 1-707), in assay [1], the binding result is “binds”.

B1: NGN3 (Neurogenin 3), endogenous (protein, UniProt Q9Y4Z2 1-214)
chain: MTPQPSGAPTVQVTRETERSFPRASEDEVTCPTSAPPSPTRTRGNCAEAEEGGCRGAPRKLRARRGGRSRPKSELALSKQRRSRRKKANDRERNRMHNLNSALDALRGVLPTFPDDAKLTKIETLRFAHNYIWALTQTLRIADHSLYALEPPAPHCGELGSPGGSPGDWGSLYSPVSQAGSLSPAASLEERPGLLGATFSACLSPGSLAFSDFL
With B1, the binding result in assay [2] was “binds”.
